From patent publication US11779620B2 (priority 2020, dated 2023)

Assay: Endotoxin testing, quantitative kinetic turbidimetric method
Conditions: purified LPS

lipopolysaccharide [LPS]
level of endotoxin, equivalent (converted from EU/ng): 10,000,000 EU/mg | level of endotoxin (same assay): 10 EU/ng
